# Data from the supplement of paper PMC7666118.
# Protein sequences, listed by entry. Tags and fused reporters are not part of them. Lines headed by an entry give the natural chain unless they say otherwise; changes in a name come on top.
# UniProt Q92902: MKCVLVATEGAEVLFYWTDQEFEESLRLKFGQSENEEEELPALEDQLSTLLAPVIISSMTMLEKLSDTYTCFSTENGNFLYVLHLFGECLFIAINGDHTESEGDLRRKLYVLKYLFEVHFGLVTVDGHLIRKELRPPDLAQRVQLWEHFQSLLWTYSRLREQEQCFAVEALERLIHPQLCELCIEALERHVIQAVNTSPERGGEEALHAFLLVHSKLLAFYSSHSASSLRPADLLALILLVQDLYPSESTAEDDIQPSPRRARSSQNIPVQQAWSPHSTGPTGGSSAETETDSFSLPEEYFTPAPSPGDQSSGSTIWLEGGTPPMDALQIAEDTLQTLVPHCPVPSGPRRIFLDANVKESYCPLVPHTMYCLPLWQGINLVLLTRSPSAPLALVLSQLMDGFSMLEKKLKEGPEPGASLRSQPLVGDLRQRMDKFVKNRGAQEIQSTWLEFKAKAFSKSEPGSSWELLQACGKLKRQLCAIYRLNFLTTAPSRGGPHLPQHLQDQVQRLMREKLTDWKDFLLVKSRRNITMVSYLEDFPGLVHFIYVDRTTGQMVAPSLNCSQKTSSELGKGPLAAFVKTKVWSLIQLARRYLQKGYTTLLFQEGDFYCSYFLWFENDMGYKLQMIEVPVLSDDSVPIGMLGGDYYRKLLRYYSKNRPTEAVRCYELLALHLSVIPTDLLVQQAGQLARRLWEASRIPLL
# UniProt O43813, whole entry: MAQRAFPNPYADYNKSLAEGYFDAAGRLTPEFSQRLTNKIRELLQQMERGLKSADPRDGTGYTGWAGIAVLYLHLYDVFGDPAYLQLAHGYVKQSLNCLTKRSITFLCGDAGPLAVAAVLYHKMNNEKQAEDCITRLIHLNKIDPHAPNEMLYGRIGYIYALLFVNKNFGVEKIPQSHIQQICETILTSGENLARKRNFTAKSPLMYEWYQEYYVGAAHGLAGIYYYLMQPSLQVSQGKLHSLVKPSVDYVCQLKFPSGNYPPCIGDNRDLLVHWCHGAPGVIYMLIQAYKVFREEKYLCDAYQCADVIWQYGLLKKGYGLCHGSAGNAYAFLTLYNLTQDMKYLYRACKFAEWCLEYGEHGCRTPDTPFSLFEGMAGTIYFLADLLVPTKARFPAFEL
# UniProt Q9NWY4: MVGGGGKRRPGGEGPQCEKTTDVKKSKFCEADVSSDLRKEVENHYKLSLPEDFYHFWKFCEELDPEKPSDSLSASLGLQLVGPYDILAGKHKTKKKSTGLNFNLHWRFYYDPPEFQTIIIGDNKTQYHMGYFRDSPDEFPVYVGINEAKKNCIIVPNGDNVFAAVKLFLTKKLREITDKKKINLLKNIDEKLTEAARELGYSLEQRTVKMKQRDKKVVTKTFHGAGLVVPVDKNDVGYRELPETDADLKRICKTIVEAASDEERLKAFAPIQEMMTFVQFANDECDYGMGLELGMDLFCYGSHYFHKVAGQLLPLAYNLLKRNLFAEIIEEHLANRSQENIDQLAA
# UniProt Q8TAP4: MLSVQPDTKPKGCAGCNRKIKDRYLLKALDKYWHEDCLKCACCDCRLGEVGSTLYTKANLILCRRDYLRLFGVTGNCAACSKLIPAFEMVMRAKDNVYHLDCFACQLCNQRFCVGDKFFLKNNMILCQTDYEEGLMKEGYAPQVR
# UniProt P14735, whole entry: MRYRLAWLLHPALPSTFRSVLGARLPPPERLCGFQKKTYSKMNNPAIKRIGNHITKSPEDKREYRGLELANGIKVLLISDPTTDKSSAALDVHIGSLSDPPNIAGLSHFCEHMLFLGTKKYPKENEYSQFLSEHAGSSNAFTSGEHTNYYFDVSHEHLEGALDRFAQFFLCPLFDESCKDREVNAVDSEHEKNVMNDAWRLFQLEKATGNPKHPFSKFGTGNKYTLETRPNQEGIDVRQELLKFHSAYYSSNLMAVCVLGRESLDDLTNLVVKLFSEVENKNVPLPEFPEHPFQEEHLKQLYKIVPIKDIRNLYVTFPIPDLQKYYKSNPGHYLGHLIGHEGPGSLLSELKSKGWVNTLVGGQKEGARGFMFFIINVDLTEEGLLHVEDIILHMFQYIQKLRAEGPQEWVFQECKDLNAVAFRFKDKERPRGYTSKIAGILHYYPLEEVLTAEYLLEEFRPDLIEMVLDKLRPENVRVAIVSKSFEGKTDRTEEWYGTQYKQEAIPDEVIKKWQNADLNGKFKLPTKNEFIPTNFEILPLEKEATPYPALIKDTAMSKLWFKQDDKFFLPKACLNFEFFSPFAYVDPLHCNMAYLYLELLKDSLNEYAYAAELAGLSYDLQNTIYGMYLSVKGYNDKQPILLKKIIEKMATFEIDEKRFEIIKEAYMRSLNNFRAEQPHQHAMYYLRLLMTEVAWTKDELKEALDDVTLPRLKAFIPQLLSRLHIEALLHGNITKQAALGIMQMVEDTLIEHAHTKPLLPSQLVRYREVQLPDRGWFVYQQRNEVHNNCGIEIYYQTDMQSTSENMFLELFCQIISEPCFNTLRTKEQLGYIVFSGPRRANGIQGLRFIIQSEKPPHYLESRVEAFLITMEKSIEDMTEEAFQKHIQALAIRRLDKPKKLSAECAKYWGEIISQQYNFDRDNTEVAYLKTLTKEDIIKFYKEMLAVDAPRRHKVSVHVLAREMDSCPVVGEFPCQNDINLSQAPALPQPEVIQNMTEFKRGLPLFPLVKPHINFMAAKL
# UniProt O60870: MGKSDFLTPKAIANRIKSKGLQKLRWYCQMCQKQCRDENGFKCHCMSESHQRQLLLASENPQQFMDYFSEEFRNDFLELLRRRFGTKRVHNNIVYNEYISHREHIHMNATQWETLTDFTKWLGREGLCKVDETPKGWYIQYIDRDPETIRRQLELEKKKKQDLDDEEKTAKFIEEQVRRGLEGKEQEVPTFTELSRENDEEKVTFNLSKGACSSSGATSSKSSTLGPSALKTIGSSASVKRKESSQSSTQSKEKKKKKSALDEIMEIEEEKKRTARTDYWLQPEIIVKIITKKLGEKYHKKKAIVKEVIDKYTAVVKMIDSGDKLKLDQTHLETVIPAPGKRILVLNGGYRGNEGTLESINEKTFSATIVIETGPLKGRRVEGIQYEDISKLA
# UniProt Q8NFY9: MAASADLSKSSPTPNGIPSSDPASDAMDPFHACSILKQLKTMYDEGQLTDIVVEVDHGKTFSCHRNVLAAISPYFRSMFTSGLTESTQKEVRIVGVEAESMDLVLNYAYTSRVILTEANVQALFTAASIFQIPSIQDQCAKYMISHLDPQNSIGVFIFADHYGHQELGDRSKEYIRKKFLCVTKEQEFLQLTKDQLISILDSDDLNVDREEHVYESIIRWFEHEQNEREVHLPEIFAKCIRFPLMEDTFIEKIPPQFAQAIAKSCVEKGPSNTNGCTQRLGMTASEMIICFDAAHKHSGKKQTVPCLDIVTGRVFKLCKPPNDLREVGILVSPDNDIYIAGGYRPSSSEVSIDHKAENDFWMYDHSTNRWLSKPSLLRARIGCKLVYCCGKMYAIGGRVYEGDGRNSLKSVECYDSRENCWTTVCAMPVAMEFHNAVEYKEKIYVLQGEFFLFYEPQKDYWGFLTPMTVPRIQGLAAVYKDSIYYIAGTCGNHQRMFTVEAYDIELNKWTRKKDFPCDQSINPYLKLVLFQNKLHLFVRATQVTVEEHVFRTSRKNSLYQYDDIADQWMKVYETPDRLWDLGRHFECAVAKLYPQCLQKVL
# UniProt Q96CB8, whole entry: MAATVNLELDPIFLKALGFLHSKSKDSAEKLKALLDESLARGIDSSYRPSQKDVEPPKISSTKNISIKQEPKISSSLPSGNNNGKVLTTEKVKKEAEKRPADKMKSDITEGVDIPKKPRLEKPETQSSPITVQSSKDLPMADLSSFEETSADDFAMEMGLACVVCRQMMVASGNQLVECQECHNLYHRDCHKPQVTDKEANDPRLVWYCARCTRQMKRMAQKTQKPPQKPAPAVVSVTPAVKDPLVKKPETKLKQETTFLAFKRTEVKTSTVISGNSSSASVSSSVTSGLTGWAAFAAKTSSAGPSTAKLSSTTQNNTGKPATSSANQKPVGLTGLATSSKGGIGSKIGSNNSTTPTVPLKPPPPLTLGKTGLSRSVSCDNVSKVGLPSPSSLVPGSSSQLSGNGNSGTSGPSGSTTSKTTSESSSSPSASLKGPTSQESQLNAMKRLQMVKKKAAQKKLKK
# UniProt Q14739: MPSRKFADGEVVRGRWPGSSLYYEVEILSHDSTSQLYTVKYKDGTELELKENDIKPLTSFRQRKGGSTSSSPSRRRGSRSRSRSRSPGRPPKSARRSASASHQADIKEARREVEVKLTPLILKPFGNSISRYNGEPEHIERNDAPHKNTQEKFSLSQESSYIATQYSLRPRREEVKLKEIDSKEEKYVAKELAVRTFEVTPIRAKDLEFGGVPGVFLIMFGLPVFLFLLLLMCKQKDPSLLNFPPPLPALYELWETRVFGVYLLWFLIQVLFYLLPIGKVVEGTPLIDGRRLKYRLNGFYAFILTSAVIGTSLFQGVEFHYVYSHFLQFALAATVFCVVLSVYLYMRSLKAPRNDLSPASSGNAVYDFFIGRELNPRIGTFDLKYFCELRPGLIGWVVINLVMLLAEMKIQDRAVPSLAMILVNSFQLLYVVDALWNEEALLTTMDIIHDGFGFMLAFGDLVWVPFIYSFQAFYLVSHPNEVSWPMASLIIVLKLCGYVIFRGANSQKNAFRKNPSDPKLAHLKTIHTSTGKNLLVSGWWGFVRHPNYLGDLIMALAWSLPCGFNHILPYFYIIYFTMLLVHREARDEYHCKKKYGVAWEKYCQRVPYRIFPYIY
# UniProt Q69YN4: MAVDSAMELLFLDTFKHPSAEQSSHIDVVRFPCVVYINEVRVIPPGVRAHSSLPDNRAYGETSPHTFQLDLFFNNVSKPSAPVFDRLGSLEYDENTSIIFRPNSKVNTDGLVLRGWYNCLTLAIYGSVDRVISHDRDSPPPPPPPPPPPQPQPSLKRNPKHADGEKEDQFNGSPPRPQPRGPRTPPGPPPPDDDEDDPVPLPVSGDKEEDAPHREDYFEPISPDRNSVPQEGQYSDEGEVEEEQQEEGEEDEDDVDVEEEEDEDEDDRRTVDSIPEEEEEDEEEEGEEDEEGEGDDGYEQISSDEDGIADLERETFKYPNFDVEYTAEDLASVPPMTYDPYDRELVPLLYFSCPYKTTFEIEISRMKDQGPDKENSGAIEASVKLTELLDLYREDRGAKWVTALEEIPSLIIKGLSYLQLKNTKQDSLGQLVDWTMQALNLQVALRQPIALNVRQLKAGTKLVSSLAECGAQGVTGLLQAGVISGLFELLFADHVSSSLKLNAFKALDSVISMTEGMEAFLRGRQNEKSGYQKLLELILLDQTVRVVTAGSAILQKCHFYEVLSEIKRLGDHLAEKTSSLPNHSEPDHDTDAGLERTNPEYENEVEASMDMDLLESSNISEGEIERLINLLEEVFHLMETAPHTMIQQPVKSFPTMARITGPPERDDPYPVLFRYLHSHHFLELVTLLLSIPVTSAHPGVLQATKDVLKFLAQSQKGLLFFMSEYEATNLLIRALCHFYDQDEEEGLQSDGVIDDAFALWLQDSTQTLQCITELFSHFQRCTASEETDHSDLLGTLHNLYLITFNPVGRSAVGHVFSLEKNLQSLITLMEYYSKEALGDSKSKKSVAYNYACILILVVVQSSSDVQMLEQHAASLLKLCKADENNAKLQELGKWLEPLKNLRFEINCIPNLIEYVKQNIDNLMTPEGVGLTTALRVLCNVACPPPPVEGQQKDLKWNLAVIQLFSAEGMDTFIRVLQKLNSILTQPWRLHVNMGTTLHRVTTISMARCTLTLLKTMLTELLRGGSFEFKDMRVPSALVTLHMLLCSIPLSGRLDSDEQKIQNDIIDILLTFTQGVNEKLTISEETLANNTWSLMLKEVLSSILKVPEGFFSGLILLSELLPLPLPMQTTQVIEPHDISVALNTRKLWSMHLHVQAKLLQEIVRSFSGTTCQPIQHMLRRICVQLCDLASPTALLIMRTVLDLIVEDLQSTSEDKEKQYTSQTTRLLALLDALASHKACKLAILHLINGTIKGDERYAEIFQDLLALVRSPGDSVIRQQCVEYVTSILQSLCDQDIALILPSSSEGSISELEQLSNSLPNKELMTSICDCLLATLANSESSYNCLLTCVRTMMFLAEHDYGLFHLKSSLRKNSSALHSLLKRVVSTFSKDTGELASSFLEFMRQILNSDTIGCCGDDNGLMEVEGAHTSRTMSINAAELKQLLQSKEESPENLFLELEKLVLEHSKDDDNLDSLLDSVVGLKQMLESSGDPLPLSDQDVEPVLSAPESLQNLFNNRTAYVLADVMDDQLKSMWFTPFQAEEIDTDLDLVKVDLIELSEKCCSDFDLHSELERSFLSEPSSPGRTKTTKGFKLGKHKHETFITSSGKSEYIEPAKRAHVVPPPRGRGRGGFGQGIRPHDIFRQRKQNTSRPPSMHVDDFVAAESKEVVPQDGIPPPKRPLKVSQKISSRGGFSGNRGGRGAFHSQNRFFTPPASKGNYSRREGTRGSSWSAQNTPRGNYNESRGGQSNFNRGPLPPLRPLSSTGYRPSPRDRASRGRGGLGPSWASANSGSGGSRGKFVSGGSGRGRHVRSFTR
# Some of the results follow.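 Rule for the calls: active = dose-dependent thermal stabilisation significant by F-test of dose-response against flat model at 10% FDR; inactive = not significant.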
# Compound: Nc1nc2c(ncn2[C@@H]2O[C@H](COP(=O)(O)OP(=O)(O)OP(=O)(O)O)[C@@H](O)[C@H]2O)c(=O)[nH]1
# Assay: dose-dependent thermal stabilisation call (2D-TPP, DLPTP, 10% FDR) (binary (1 = stabilised)); higher = stabilised by the compound
# Conditions: system: Jurkat gel-filtered lysate; concentration range 1-500 µM
row,Target,dose-dependent thermal stabilisation call
1,KHSRP (UniProt Q92945),inactive: 0
2,LGMN (UniProt Q99538),active: 1
3,KIF3B (UniProt O15066),active: 1
4,LAMTOR2 (UniProt Q9Y2Q5),inactive: 0
5,KPNA6 (UniProt O60684),active: 1
6,LPXN (UniProt O60711),inactive: 0
7,LONP1 (UniProt P36776),inactive: 0
8,HPS1 (UniProt Q92902),inactive: 0
9,ITSN2 (UniProt Q9NZM3),inactive: 0
10,LANCL1 (UniProt O43813),inactive: 0
11,KDM6A (UniProt O15550),inactive: 0
12,INCENP (UniProt Q9NQS7),inactive: 0
13,LAMTOR5 (UniProt O43504),inactive: 0
14,KLHL42 (UniProt Q9P2K6),inactive: 0
15,HPF1 (UniProt Q9NWY4),active: 1
16,KNL1 (UniProt Q8NG31),inactive: 0
17,LMO3 (UniProt Q8TAP4),inactive: 0
18,IDE (UniProt P14735),inactive: 0

row,Target,dose-dependent thermal stabilisation call
1,LPP (UniProt Q93052),inactive: 0
2,KIN (UniProt O60870),active: 1
3,HPS4 (UniProt Q9NQG7),inactive: 0
4,KBTBD8 (UniProt Q8NFY9),inactive: 0
5,HSP90AB1 (UniProt P08238),inactive: 0
6,KIAA1524 (UniProt Q8TCG1),inactive: 0
7,KIF4A (UniProt O95239),active: 1
8,INTS12 (UniProt Q96CB8),inactive: 0
9,LARP4 (UniProt Q71RC2),inactive: 0
10,INTS9 (UniProt Q9NV88),inactive: 0
11,KPNA2 (UniProt P52292),active: 1
12,KPNA3 (UniProt O00505),inactive: 0
13,LBR (UniProt Q14739),inactive: 0
14,IPO9 (UniProt Q96P70),inactive: 0
15,KIAA1429 (UniProt Q69YN4),inactive: 0
16,LCMT1 (UniProt Q9UIC8),inactive: 0
17,IKZF1 (UniProt Q13422),inactive: 0

# Reprinted from the listing (7 entries):
row,Target,dose-dependent thermal stabilisation call
1,LPP (UniProt Q93052),inactive: 0
2,KIN (UniProt O60870),active: 1
3,HPS4 (UniProt Q9NQG7),inactive: 0
4,KBTBD8 (UniProt Q8NFY9),inactive: 0
5,HSP90AB1 (UniProt P08238),inactive: 0
6,KIAA1524 (UniProt Q8TCG1),inactive: 0
7,KIF4A (UniProt O95239),active: 1
